The list shows a part of the results. Most entries show no effect beyond the scatter of the controls.
The targets below were run with CN[C@@H]1C[C@H]2O[C@@](C)([C@@H]1OC)n1c3ccccc3c3c4c(c5c6ccccc6n2c5c31)C(=O)NC4 [staurosporine] (assay: log2 fold change of tryptic peptide abundance, ligand vs vehicle (limited proteolysis) (log2 ratio); higher = more trypsin-susceptible (destabilized)). Settings: ligand concentration: 20 uM; sample: mouse liver crude lysate; replicate design: treated separately.

Amino acid sequences for entries named in this document (tags omitted). A change or cut given only in a name is not applied to a line headed by its entry.
UniProt Q920F6: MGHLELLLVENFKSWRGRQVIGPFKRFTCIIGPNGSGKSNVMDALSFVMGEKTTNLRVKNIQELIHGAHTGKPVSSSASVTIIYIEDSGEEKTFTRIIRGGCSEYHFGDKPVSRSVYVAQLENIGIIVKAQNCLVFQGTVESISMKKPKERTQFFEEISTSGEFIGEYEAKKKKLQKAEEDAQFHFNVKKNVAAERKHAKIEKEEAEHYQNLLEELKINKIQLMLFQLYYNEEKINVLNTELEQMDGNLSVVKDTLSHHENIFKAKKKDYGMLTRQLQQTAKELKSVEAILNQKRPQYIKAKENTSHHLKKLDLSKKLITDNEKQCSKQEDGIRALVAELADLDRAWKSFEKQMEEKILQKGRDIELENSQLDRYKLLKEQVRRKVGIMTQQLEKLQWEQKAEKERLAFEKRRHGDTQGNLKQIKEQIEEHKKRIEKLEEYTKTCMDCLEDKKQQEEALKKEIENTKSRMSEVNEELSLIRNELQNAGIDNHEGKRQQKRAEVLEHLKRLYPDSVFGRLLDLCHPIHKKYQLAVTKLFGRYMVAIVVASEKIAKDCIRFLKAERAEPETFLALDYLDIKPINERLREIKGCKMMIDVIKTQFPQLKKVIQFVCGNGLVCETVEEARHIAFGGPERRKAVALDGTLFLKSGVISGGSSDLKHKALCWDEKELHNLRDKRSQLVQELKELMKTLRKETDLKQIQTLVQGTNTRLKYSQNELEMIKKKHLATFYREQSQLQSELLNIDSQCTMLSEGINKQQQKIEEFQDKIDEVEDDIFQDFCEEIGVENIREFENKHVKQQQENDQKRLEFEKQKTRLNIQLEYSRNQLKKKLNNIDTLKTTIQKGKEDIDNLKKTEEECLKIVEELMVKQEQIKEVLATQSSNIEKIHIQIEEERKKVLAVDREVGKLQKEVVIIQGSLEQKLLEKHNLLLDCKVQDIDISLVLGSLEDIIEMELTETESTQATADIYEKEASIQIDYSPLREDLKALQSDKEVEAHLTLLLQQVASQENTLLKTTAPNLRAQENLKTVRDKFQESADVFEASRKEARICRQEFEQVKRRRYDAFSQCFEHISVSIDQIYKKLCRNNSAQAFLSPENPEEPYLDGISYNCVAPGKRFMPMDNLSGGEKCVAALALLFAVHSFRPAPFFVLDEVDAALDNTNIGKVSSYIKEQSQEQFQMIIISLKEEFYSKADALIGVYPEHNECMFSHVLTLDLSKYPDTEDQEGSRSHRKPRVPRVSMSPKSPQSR
UniProt Q924Z4: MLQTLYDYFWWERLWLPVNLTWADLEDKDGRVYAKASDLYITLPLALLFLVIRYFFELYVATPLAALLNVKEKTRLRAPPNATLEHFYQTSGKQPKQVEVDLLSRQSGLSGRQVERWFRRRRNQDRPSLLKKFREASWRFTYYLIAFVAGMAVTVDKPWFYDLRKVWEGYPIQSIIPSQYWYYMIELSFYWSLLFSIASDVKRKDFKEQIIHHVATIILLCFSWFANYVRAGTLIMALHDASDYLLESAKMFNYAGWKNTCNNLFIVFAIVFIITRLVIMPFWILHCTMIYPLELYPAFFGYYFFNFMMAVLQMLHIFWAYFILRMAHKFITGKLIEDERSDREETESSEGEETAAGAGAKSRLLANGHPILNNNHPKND
UniProt Q924N4: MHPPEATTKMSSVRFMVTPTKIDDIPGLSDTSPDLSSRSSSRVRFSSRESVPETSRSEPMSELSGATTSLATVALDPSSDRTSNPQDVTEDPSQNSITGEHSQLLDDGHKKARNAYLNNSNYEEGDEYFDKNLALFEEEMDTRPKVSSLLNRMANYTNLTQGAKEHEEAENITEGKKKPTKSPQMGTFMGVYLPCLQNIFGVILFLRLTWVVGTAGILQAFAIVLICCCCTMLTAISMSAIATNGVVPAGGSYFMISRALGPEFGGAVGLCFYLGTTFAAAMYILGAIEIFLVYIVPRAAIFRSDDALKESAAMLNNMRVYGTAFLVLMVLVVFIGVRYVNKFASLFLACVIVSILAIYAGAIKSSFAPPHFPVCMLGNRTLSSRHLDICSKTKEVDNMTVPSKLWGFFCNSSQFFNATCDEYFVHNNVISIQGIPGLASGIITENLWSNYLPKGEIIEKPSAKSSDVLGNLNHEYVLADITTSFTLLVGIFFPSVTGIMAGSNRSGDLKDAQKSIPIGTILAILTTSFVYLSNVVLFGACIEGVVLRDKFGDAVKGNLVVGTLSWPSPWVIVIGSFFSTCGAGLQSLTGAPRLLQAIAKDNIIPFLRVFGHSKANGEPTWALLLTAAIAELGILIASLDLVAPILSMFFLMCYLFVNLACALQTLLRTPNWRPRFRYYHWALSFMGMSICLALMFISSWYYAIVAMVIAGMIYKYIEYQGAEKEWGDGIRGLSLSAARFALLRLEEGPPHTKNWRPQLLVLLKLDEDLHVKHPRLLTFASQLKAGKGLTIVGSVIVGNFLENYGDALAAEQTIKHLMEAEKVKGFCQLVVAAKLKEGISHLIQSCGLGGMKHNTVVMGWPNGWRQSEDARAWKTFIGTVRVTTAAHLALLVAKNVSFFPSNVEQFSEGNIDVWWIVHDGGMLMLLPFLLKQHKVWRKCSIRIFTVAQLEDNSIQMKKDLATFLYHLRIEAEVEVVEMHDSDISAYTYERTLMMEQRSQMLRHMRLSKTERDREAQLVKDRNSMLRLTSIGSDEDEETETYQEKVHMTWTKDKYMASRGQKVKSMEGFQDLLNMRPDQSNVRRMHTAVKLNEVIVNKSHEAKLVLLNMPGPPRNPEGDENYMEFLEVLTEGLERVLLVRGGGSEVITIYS
UniProt Q923J1: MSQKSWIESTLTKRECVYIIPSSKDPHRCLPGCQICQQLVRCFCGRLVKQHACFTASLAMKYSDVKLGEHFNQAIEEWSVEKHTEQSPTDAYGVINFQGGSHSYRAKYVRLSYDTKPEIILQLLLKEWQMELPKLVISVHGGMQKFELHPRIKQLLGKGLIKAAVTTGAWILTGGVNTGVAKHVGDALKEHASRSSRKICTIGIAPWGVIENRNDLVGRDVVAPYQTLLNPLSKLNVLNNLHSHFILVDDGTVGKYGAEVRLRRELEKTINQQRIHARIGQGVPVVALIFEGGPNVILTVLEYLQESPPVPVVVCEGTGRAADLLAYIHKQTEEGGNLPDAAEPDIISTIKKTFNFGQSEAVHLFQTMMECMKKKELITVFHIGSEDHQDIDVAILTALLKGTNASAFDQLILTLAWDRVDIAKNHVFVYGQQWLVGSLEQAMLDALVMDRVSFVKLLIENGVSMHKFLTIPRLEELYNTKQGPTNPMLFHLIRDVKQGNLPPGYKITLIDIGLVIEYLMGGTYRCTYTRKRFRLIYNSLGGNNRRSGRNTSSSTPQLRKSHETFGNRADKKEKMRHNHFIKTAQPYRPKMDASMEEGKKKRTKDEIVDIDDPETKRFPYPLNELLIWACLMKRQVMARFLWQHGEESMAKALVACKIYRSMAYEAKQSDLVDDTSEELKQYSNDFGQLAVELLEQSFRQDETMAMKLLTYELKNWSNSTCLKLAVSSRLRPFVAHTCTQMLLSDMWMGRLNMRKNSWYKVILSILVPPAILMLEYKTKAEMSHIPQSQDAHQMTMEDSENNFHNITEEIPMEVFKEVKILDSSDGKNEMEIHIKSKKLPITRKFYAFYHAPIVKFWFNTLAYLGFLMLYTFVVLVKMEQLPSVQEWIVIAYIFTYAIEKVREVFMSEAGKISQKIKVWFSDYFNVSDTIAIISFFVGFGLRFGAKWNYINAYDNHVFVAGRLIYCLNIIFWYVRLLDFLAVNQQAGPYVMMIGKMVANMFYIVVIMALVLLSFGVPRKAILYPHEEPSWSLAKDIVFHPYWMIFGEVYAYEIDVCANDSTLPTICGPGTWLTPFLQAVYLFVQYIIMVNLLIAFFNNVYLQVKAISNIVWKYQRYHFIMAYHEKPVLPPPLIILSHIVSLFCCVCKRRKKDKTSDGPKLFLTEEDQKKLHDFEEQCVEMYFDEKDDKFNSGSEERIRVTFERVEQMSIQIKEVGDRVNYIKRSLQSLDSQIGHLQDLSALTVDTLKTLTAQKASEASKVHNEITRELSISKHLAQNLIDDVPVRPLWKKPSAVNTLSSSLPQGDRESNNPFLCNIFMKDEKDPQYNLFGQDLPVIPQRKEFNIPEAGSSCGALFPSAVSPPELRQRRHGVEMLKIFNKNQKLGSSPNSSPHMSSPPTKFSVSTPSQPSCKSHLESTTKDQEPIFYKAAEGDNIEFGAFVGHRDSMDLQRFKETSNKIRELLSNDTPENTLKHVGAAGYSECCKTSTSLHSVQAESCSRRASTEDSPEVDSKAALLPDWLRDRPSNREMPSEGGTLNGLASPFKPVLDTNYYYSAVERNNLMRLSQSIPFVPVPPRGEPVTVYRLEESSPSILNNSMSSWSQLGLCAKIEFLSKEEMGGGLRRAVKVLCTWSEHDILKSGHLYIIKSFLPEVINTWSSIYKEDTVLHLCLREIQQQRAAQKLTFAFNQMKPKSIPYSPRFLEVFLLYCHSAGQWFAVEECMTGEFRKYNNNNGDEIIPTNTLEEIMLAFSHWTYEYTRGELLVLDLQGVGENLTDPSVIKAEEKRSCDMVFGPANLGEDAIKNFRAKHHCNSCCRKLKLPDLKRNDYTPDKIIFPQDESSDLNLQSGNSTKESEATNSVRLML
UniProt Q99KN9: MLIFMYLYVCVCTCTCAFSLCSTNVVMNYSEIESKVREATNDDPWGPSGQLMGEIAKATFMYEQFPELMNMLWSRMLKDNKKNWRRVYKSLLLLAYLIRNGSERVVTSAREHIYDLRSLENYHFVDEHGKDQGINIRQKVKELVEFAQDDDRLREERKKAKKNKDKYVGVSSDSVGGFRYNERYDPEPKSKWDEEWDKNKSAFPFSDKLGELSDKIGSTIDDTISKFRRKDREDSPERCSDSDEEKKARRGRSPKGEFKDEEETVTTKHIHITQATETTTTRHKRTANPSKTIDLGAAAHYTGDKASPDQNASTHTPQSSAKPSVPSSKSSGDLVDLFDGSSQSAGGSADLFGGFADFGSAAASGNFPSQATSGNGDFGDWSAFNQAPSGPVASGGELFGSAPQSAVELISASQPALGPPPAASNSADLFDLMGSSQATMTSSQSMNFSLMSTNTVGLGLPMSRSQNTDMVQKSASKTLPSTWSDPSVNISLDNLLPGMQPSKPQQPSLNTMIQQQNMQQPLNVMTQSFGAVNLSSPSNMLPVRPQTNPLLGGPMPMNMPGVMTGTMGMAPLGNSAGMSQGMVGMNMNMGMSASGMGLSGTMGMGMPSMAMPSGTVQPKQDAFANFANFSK
UniProt Q99JN2: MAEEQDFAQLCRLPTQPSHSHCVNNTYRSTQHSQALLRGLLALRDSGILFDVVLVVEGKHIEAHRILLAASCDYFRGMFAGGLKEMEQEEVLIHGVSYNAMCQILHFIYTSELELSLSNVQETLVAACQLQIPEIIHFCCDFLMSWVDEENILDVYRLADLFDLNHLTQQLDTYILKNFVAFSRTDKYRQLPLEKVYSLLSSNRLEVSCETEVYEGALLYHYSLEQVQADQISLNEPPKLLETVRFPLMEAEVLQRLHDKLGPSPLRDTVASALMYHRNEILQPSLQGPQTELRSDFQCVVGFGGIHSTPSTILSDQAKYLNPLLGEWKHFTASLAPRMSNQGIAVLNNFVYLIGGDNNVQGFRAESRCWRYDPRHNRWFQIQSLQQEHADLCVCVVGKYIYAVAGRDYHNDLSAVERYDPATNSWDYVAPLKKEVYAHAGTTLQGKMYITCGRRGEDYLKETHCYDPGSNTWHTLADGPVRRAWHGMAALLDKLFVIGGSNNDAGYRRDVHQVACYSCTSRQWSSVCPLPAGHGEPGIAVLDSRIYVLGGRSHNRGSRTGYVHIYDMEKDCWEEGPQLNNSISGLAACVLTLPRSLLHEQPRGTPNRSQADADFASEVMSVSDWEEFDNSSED
UniProt Q924H7: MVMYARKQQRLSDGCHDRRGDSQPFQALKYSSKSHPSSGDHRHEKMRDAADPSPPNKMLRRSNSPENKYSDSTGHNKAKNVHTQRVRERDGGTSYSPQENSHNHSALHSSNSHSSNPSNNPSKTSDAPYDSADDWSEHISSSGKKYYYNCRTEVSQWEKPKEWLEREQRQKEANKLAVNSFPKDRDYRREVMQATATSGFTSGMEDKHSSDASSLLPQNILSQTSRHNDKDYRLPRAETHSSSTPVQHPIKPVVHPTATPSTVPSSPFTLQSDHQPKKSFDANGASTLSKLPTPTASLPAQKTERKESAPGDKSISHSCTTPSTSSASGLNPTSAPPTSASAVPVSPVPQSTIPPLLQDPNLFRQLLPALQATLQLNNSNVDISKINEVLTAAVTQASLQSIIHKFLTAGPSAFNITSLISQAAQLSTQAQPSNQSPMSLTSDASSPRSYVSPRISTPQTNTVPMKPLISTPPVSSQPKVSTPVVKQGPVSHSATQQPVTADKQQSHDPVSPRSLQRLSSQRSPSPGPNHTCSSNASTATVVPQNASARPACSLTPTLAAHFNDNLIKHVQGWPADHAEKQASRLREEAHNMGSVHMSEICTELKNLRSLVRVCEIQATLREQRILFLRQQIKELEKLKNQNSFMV

Target	log2 fold change
UniProt Q99L90 (peptide sequence: SEDEESLAGQKR, peptide start residue: 22)	0.413
UniProt Q920F6 (peptide sequence: TFTRIIR, peptide start residue: 93)	0.0967
UniProt Q922B2 (peptide sequence: VFCIGPVFR, peptide start residue: 265)	0.129
UniProt Q99JT5 (peptide sequence: LCSEHSTIDPQVSHR, peptide start residue: 138)	0.217
UniProt Q922L6 (peptide sequence: DYIMEPSIFNTLKR, peptide start residue: 56)	0.235
UniProt Q921H9 (peptide sequence: YGHGDSCYK, peptide start residue: 65)	-0.276
UniProt Q924Z4 (peptide sequence: APPNATLEHFYQTSGK, peptide start residue: 78)	0.228
UniProt Q922G2 (peptide sequence: LSGGSHYNSQK, peptide start residue: 163)	0.259
UniProt Q99J09 (peptide sequence: KDTPPPLVPPAAR, peptide start residue: 3)	0.122
UniProt Q99KQ4 (peptide sequence: LLPPYLR, peptide start residue: 343)	-0.274
UniProt Q921M4 (peptide sequence: FLEVMQEK, peptide start residue: 809)	0.206
UniProt Q91ZV0 (peptide sequence: TDESGSMQYLK, peptide start residue: 444)	0.715
UniProt Q923K4 (peptide sequence: TSGPASGLALR, peptide start residue: 53)	0.273
UniProt Q99J77 (peptide sequence: VKIPAGTTLTLDMLTVK, peptide start residue: 299)	0.141
UniProt Q922D4 (peptide sequence: LGSFHELLLEPPKK, peptide start residue: 313)	-0.324
UniProt Q924N4 (peptide sequence: TLMMEQR, peptide start residue: 926)	0.123
UniProt Q99L02 (peptide sequence: DSLIDRR, peptide start residue: 178)	-0.316
UniProt Q922Q5 (peptide sequence: YVSISVPSK, peptide start residue: 11)	-0.195
UniProt Q920G8 (peptide sequence: MQSLNPDPK, peptide start residue: 73)	-0.559
UniProt Q99J93 (peptide sequence: TTVINMPR, peptide start residue: 43)	-0.0388

Target	log2 fold change
UniProt Q99JB2 (peptide sequence: ESMQMQVEAERR, peptide start residue: 188)	0.176
UniProt Q920I9 (peptide sequence: GPTRPPRPGTPDLSK, peptide start residue: 917)	0.362
UniProt Q99K51 (peptide sequence: HVIPMNPNTDDLFK, peptide start residue: 145)	-0.611
UniProt Q923J1 (peptide sequence: LGSSPNSSPHMSSPPTK, peptide start residue: 1383)	-0.341
UniProt Q99KN9 (peptide sequence: SLENYHFVDEHGKDQGINIR, peptide start residue: 118)	-0.665
UniProt Q99KB8 (peptide sequence: VYCGHEYTVNNLK, peptide start residue: 218)	-0.213
UniProt Q99JY9 (peptide sequence: NIVLSGGSTMFR, peptide start residue: 318)	0.154
UniProt Q99JN2 (peptide sequence: SLLHEQPR, peptide start residue: 596)	-0.327
UniProt Q99JR6 (peptide sequence: NRIPVVLLACGSFNPITNMHLR, peptide start residue: 3)	0.318
UniProt Q99LB0 (peptide sequence: DLAASDDYR, peptide start residue: 275)	0.417
UniProt Q920Q8 (peptide sequence: NFASCMGDSR, peptide start residue: 139)	0.109
UniProt Q99JB8 (peptide sequence: AAEDGFRK, peptide start residue: 131)	0.336
UniProt Q922R5 (peptide sequence: LNSVPSILR, peptide start residue: 658)	-0.255
UniProt Q99LI9 (peptide sequence: GCFYPHAFNVK, peptide start residue: 310)	0.155
UniProt Q925N2 (peptide sequence: DRNQNELGHSQR, peptide start residue: 208)	-0.808
UniProt Q924H7 (peptide sequence: YSDSTGHNK, peptide start residue: 69)	-0.8
UniProt Q924S8 (peptide sequence: KSDYLYHCGDETK, peptide start residue: 290)	0.852
UniProt Q923X4 (peptide sequence: FIGGAADTHR, peptide start residue: 123)	-0.0866
UniProt Q924H2 (peptide sequence: SLLDILTDPSKR, peptide start residue: 569)	-0.142
UniProt Q921K8 (peptide sequence: GALSEFQAMLNHK, peptide start residue: 417)	-0.15

Laid out differently: entries from further up.
Target,log2 fold change
"UniProt Q920F6 (peptide sequence: TFTRIIR, peptide start residue: 93)",0.0967
"UniProt Q99JY9 (peptide sequence: NIVLSGGSTMFR, peptide start residue: 318)",0.154
